Test results as given in publication PMC3877338.
No constants are given. Whether binding was seen depends on the method and setting. In cells and extracts the contact can be indirect. Some results given as binding are weak or reduced against the parent protein; the word gives no strength. Where a sequence is shown, tags or fusion partners need not be part of it.

Experiments:
[1] = target: T1, RXR-Luc (mouse RXRα fused at its C-terminus to Renilla luciferase Rluc8) (mouse) (UniProt P28700); assay: FRET or BRET; in vitro BRET shift in Gel shift Buffer (10 mM Tris pH 7.5, 50 mM KCl, 1 mM DTT, 0, 2 or 5 mM MgCl2), lysates diluted in GSB, with dsDNA RE
T1 sequence: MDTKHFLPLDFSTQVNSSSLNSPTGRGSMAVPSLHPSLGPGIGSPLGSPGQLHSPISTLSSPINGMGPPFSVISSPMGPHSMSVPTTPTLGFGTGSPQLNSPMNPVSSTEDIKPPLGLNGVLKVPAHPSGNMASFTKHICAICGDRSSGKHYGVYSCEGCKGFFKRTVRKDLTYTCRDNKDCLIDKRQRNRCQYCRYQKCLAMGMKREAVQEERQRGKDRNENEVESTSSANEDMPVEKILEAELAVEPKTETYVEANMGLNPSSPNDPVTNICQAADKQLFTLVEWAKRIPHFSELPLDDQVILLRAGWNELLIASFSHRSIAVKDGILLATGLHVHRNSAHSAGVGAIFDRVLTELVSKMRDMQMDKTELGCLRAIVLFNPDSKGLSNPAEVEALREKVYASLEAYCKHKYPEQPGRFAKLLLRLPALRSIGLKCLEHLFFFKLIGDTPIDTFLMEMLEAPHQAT

[2] = target: T1, RXR-Luc (mouse RXRα fused at its C-terminus to Renilla luciferase Rluc8) (mouse); assay: FRET or BRET; in vitro BRET shift: cleared HEK293T lysates in PLB, 80 ku RXR-Luc donor mixed with acceptor lysate, with 100 nM consensus dsDNA RE (DR1 for RXR/PPARG2 and RXR/RXR, DR4 for RXR/THR); with or without polydIdC
[3] = target: T1, RXR-Luc (mouse RXRα fused at its C-terminus to Renilla luciferase Rluc8) (mouse); assay: FRET or BRET; BRET titration in living HEK293T cells: fixed RXR-Luc donor plasmid, increasing acceptor plasmid; cells in PBS with 0.1% glucose, coelenterazine H 5 uM; control DMSO or ligands (9cisRA + TROG or T3; 5-10 min or overnight); apparent Kd = EYFP/Luc ratio at BRETmax/2

Row | Binder | binding [1] | binding [2] | binding [3]
1 | THR-EYFP (mouse THRα fused at its C-terminus to EYFP) (receptor, UniProt P63058-2 1-410) MEQKPSKVECGSDPEENSARSPDGKRKRKNGQCPLKSSMSGYIPSYLDKDEQCVVCGDKATGYHYRCITCEGCKGFFRRTIQKNLHPTYSCKYDSCCVIDKITRNQCQLCRFKKCIAVGMAMDLVLDDSKRVAKRKLIEQNRERRRKEEMIRSLQQRPEPTPEEWDLIHVATEAHRSTNAQGSHWKQRRKFLPDDIGQSPIVSMPDGDKVDLEAFSEFTKIITPAITRVVDFAKKLPMFSELPCEDQIILLKGCCMEIMSLRAAVRYDPESDTLTLSGEMAVKREQLKNGGLGVVSDAIFELGKSLSAFNLDDTEVALLQAVLLMSTDRSGLLCVDKIEKSQEAYLLAFEHYVNHRKHNIPHFWPKLLMKVTDLRMIGACHASRFLHMKVECPTELFPPLFLEVFEDQEV | binds | binds | binds
2 | RXR-Luc (mouse RXRα fused at its C-terminus to Renilla luciferase Rluc8) (receptor, UniProt P28700 1-467) MDTKHFLPLDFSTQVNSSSLNSPTGRGSMAVPSLHPSLGPGIGSPLGSPGQLHSPISTLSSPINGMGPPFSVISSPMGPHSMSVPTTPTLGFGTGSPQLNSPMNPVSSTEDIKPPLGLNGVLKVPAHPSGNMASFTKHICAICGDRSSGKHYGVYSCEGCKGFFKRTVRKDLTYTCRDNKDCLIDKRQRNRCQYCRYQKCLAMGMKREAVQEERQRGKDRNENEVESTSSANEDMPVEKILEAELAVEPKTETYVEANMGLNPSSPNDPVTNICQAADKQLFTLVEWAKRIPHFSELPLDDQVILLRAGWNELLIASFSHRSIAVKDGILLATGLHVHRNSAHSAGVGAIFDRVLTELVSKMRDMQMDKTELGCLRAIVLFNPDSKGLSNPAEVEALREKVYASLEAYCKHKYPEQPGRFAKLLLRLPALRSIGLKCLEHLFFFKLIGDTPIDTFLMEMLEAPHQAT | binds | binds | 
